Assay results reported in paper PMC10404282.
These are yes or no findings as the source states them, for the method shown. Binding seen in cells or lysates may run through a third protein. Some results given as binding are weak or reduced against the parent protein; the word gives no strength.

The chains behind the UniProt entries cited, without tags or fusion partners.
UniProt P04198: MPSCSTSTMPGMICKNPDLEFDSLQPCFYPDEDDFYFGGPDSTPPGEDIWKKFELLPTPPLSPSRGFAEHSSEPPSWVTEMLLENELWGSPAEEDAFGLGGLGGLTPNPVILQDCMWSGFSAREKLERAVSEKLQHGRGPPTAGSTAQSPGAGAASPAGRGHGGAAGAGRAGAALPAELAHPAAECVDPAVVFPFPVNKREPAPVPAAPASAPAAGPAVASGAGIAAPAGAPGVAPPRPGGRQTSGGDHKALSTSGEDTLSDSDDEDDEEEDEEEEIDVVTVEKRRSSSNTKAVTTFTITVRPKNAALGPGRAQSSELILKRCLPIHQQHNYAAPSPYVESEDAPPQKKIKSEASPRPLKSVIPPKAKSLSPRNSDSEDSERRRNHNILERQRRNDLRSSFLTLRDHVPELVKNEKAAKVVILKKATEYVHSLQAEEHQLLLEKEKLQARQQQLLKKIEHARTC
UniProt Q92560: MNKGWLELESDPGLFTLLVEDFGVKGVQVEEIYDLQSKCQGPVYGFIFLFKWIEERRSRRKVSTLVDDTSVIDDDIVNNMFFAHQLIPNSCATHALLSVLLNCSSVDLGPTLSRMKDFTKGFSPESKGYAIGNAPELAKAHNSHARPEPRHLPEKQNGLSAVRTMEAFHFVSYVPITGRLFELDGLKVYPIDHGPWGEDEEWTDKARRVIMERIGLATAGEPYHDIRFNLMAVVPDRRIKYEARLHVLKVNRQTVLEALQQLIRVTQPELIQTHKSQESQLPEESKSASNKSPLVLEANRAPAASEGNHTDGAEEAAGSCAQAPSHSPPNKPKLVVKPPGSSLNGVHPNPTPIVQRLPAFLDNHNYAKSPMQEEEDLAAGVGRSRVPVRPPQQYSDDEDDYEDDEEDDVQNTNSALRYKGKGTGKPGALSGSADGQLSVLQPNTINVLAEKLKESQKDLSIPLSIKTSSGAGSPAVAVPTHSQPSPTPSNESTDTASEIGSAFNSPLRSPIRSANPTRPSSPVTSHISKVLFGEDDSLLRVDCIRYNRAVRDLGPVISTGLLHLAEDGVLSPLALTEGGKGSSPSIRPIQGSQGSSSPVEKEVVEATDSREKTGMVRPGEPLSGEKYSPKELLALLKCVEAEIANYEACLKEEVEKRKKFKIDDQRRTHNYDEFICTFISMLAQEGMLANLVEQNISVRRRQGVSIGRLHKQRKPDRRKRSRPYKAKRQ

Tests used:
HA-MYCN [1] = biological target: HA-MYCN (UniProt P04198); test: co-IP; Flag-BAP1 and HA-MYCN co-transfected into 293T cells; 10 uM MG132 for 10 h before harvest; EBC lysis buffer (50 mM Tris pH 8.0, 120 mM NaCl, 0.5% NP-40), antibody-conjugated beads 4-5 h at 4 C, washed with NETN buffer; immunoblot
HA-MYCN [2] = biological target: HA-MYCN (UniProt P04198); test: co-IP; endogenous BAP1 with MYCN in 293T cells transfected with the indicated constructs; 10 uM MG132 for 10 h before harvest; EBC lysis buffer, washed with NETN buffer; immunoblot

| binding (HA-MYCN [1]) | binding (HA-MYCN [2]) | Substance |
| --- | --- | --- |
| binds | – | Flag-BAP1 (BRCA1-associated protein-1) (from UniProt Q92560 1-729) (enzyme) |
| – | binds | endogenous BAP1 (from UniProt Q92560 1-729) (enzyme) |
